Source: PubChem BioAssay AID743121 (NCATS, 2013)
Aim: 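Knock-downs that sensitise breast cancer cells to camptothecin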 (primary screen). Cell system: MDA-MB-231 cells, a human breast cancer line. Reagents: single siRNA against human genes, 20 nM siRNA (0.8 pmol per well). Duration: 120 h (drug added 48 h after transfection, read 72 h later). Conditions: camptothecin 20 nM (about EC30) for 72 h; vehicle 0.1% DMSO in parallel plates. Measurement: 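Cell viability by ATP luminescence (CellTiter-Glo) as % of non-targeting siRNA wells, and the log2 ratio of viability without drug over viability with camptothecin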. Direction: log2 vehicle/camptothecin viability: higher = stronger sensitisation to camptothecin; viability with camptothecin and viability without drug: higher = more viable cells. Call rule: 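Active genes have an RSA gene-level p-value below 0.001, computed from the ratios of their separate siRNAs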.
This is an unselected part of about 26,000 reagents tested. 167 of all reagents (0.63%) were called active. 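Calls are per gene from RSA p-values that are not deposited; an individual active-marked siRNA can sensitise only weakly.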 A number with no mark means an inactive call. Reagents against one gene are numbered here.

no.	Gene	siRNA no.	log2 vehicle/camptothecin viability	viability with camptothecin (% of control)	viability without drug (% of control)
1	SHOC2 (SHOC2 leucine rich repeat scaffold protein)	1	-0.241	100	85
2	SHOC2 (SHOC2 leucine rich repeat scaffold protein)	2	0.409	20.3	27
3	SHOC2 (SHOC2 leucine rich repeat scaffold protein)	3	-0.26	75.8	63.3
4	SHOC2 (SHOC2 leucine rich repeat scaffold protein)	4	-0.543	88.1	60.5
5	DUSP23 (dual specificity phosphatase 23)	1	-0.541	77.5	53.3
6	DUSP23 (dual specificity phosphatase 23)	2	-0.339	91.6	72.4
7	DUSP23 (dual specificity phosphatase 23)	3	-0.0268	113	111
8	DUSP23 (dual specificity phosphatase 23)	4	-0.594	45.5	30.2
9	PARK7 (Parkinsonism associated deglycase)	1	0.181	101	114
10	PARK7 (Parkinsonism associated deglycase)	2	-0.136	104	94.5
11	PARK7 (Parkinsonism associated deglycase)	3	0.27	82.1	99
12	PARK7 (Parkinsonism associated deglycase)	4	-0.256	32.2	27
13	QRFPR (pyroglutamylated RFamide peptide receptor)	1	0.129	109	119
14	QRFPR (pyroglutamylated RFamide peptide receptor)	2	-0.192	106	92.8
15	QRFPR (pyroglutamylated RFamide peptide receptor)	3	-0.0716	105	99.9
16	QRFPR (pyroglutamylated RFamide peptide receptor)	4	-0.511	83.5	58.6
17	USP51 (ubiquitin specific peptidase 51)	1	-0.166	72.7	64.8
18	USP51 (ubiquitin specific peptidase 51)	2	-0.203	120	104
19	USP51 (ubiquitin specific peptidase 51)	3	-0.454	39.7	29
20	USP51 (ubiquitin specific peptidase 51)	4	0.404	53.7	71
21	TNN (tenascin N)	1	-0.35	127	99.6
22	TNN (tenascin N)	2	-0.0604	52.3	50.2
23	TNN (tenascin N)	3	0.0131	118	119
24	TNN (tenascin N)	4	0.0976	95.5	102

3 entries from above, reformatted:
Gene | siRNA no. | log2 vehicle/camptothecin viability | viability with camptothecin (% of control) | viability without drug (% of control)
DUSP23 (dual specificity phosphatase 23) | 3 | -0.0268 | 113 | 111
DUSP23 (dual specificity phosphatase 23) | 4 | -0.594 | 45.5 | 30.2
PARK7 (Parkinsonism associated deglycase) | 1 | 0.181 | 101 | 114

The listing continues.
no.	Gene	siRNA no.	log2 vehicle/camptothecin viability	viability with camptothecin (% of control)	viability without drug (% of control)
25	TRIM39 (tripartite motif containing 39)	1	-0.00222	81.8	81.7
26	TRIM39 (tripartite motif containing 39)	2	-0.209	57.7	50
27	TRIM39 (tripartite motif containing 39)	3	0.362	48.2	62
28	UBR5 (ubiquitin protein ligase E3 component n-recognin 5)	1	0.132	69.4	76.1
29	UBR5 (ubiquitin protein ligase E3 component n-recognin 5)	2	-0.525	100	69.8
30	UBR5 (ubiquitin protein ligase E3 component n-recognin 5)	3	-0.443	85.7	63.1
31	UBR5 (ubiquitin protein ligase E3 component n-recognin 5)	4	-0.0573	87.8	84.4
32	PDP1 (pyruvate dehydrogenase phosphatase catalytic subunit 1)	1	-0.177	92.1	81.4
33	PDP1 (pyruvate dehydrogenase phosphatase catalytic subunit 1)	2	0.16	67	74.8
34	PDP1 (pyruvate dehydrogenase phosphatase catalytic subunit 1)	3	-0.112	106	97.8
35	PDP1 (pyruvate dehydrogenase phosphatase catalytic subunit 1)	4	0.0888	61.4	65.3
36	IL37 (interleukin 37)	1	-0.343	62	48.9
37	IL37 (interleukin 37)	2	0.364	19.6	25.2
38	IL37 (interleukin 37)	3	-0.0407	73.2	71.1
39	IL37 (interleukin 37)	4	0.0844	88.3	93.6
40	SFTPD (surfactant protein D)	1	-0.46	87.1	63.4
41	SFTPD (surfactant protein D)	2	-0.237	79.2	67.2
42	SFTPD (surfactant protein D)	3	-0.495	75.2	53.4
43	SFTPD (surfactant protein D)	4	-0.0791	90.8	85.9
44	SERPINB9 (serpin family B member 9)	1	-0.109	81.2	75.2
45	SERPINB9 (serpin family B member 9)	2	-0.236	89.2	75.7
46	SERPINB9 (serpin family B member 9)	3	0.163	56.9	63.8
47	SERPINB9 (serpin family B member 9)	4	-0.27	74	61.3
